# Assay results: the supplement of paper PMC9744312
# Structures can show the parent of a compound that is named as a salt. Some of the results follow. The data scatter; read single values as rough.
# System: Peyronie's disease tunica albuginea primary fibroblasts
# Assay: inhibition of TGF-beta1-induced alpha-SMA expression (myofibroblast transformation), relative to TGF-beta1-only and untreated controls; higher = stronger inhibition of myofibroblast transformation
# Conditions: 10 µM; TGF-beta1 10 ng/mL; 72 h
row,Structure (SMILES),inhibition of TGF-beta1-induced alpha-SMA expression [%]
1,C#CCN(C)Cc1ccccc1 [Pargyline hydrochloride],13.7
2,COc1ccc2cc(CCC(C)=O)ccc2c1 [Nabumetone],-2.77
3,C[C@H]1[C@@H](O)O[C@@H]2O[C@@]3(C)CC[C@H]4[C@H](C)CC[C@@H]1[C@@]24OO3 [Dihydroartemisinin (DHA)],53.3
4,CCn1cc(C(=O)O)c(=O)c2ccc(C)nc21 [Nalidixic acid],-7.86
5,O=C(CCCN1CC=C(n2c(=O)[nH]c3ccccc32)CC1)c1ccc(F)cc1 [Droperidol],27.8
6,Oc1c(I)cc(I)c2cccnc12 [Diiodohydroxyquinoline],> 100
7,"CC1(C)OC(=O)NC1=O [5,5-Dimethyloxazolidine-2,4-dione]",35.1
8,Cn1ncc(Cl)c1-c1cc(C(=O)N[C@H](CN)Cc2ccc(F)c(F)c2)oc1Cl,> 100
9,CCC[C@H](N[C@@H](C)C(=O)N1[C@H](C(=O)O)C[C@@H]2CCCC[C@@H]21)C(=O)OCC [Perindopril Erbumine],31.6
10,CCCC(=O)O[C@]1(C(=O)COC(C)=O)CC[C@H]2[C@@H]3C[C@H](F)C4=CC(=O)C=C[C@]4(C)[C@@]3(F)[C@@H](O)C[C@@]21C [Difluprednate],48.7
11,Nc1ccc(C(=O)NCC(=O)O)cc1 [Sodium 4-aminohippurate Hydrate],23.4
12,COc1ccc(NS(=O)(=O)c2ccc(N)cc2)nn1 [Sulfamethoxypyridazine],38.5
13,Nc1ccc(S(=O)(=O)c2ccc(N)cc2)cc1 [Dapson],1.02
14,CN(C)CCc1c[nH]c2ccc(Cn3cncn3)cc12 [Rizatriptan Benzoate],0.863
15,OCCN1CCN(CCCN2c3ccccc3Sc3ccc(Cl)cc32)CC1 [Perphenazine],58.7
16,N[C@H]1C(O)O[C@H](CO)[C@@H](O)[C@@H]1O (stereo partly specified) [Glucosamine hydrochloride],19.8
17,N[C@H]1C(O)O[C@H](CO)[C@@H](O)[C@@H]1O (stereo partly specified) [Glucosamine sulfate],26
18,N=C(N)NC(=N)N1CCOCC1 [Moroxydine HCl],20.4
19,CC(=O)Oc1cccc2c1C(=O)c1c(OC(C)=O)cc(C(=O)O)cc1C2=O [Diacerein],-0.395
20,CN1CCCCC1CCN1c2ccccc2Sc2ccc([S+](C)[O-])cc21 (stereo unspecified) [Mesoridazine Besylate],48.6
21,CC(C)C[C@H](NC(=O)[C@H](CCc1ccccc1)NC(=O)CN1CCOCC1)C(=O)N[C@@H](Cc1ccccc1)C(=O)N[C@@H](CC(C)C)C(=O)[C@@]1(C)CO1 [Carfilzomib (PR-171)],> 100

row,Structure (SMILES),inhibition of TGF-beta1-induced alpha-SMA expression [%]
1,O=C(O[C@H]1CN2CCC1CC2)N1CCc2ccccc2[C@@H]1c1ccccc1 [Solifenacin],43.5
2,O=C(O[C@H]1CN2CCC1CC2)N1CCc2ccccc2[C@@H]1c1ccccc1 [Solifenacin succinate],95.7
3,NC(=O)N/N=C/c1ccc([N+](=O)[O-])o1 [Nitrofural],10
4,CN(C)CCC[C@@]1(c2ccc(F)cc2)OCc2cc(C#N)ccc21 [Escitalopram Oxalate],18.5
5,CCCC(=O)Nc1ncnc2c1ncn2[C@@H]1O[C@@H]2COP(=O)(O)O[C@H]2[C@H]1OC(=O)CCC [Dibutyryl-cAMP (Bucladesine)],15.4
6,CN1CCCC(n2nc(Cc3ccc(Cl)cc3)c3ccccc3c2=O)CC1 (stereo unspecified) [Azelastine HCl],57
7,C=C=CCNC(=O)c1ccc(F)cc1 [Diastase],-16.3
8,CCN1CCN(C(=O)N[C@@H](C(=O)N[C@@H]2C(=O)N3[C@@H]2SC(C)(C)[C@@H]3C(=O)O)c2ccccc2)C(=O)C1=O [Piperacillin Sodium],4.89
9,CO[C@@H]1[C@@H](OC(N)=O)[C@@H](O)[C@H](Oc2ccc3c(O)c(NC(=O)c4ccc(O)c(CC=C(C)C)c4)c(=O)oc3c2C)OC1(C)C [Novobiocin Sodium],23.1
10,CN(C)[C@@H]1C(O)=C(C(N)=O)C(=O)[C@@]2(O)C(O)=C3C(=O)c4c(O)ccc(Cl)c4[C@@H](O)[C@H]3C[C@@H]12 [Demeclocycline HCl],-9.39
11,CCC1(c2c[nH]cn2)Cc2ccccc2C1 [Atipamezole],6.42
12,CCC1(c2c[nH]cn2)Cc2ccccc2C1 [Atipamezole hydrochloride],29.1
13,Cn1c([N+](=O)[O-])cnc1COC(N)=O [Ronidazole],-0.85
14,CCN(c1cc(-c2ccc(CN3CCOCC3)cc2)cc(C(=O)NCc2c(C)cc(C)[nH]c2=O)c1C)C1CCOCC1 [Tazemetostat (EPZ-6438)],31.5
15,COc1ccc(C(=O)NCc2ccc(OCCN(C)C)cc2)cc1OC [Itopride hydrochloride],18.7
16,CCCCCCCCN=c1ccn(CCCCCCCCCCn2ccc(=NCCCCCCCC)cc2)cc1 [Octenidine Dihydrochloride],> 100
17,N[C@@H](C(=O)N[C@@H]1C(=O)N2C(C(=O)O)=C(Cl)CS[C@H]12)c1ccccc1 [Cefaclor],-1.04
18,CC[C@@H]1/C=C(\C)C[C@H](C)C[C@H](OC)[C@H]2O[C@@](O)(C(=O)C(=O)N3CCCC[C@H]3C(=O)O[C@H](/C(C)=C/[C@@H]3CC[C@H](Cl)[C@H](OC)C3)[C@H](C)[C@@H](O)CC1=O)[C@H](C)C[C@@H]2OC [Pimecrolimus],15.6
19,OC[C@H]1O[C@@H](O[C@@H]2[C@@H](CO)OC(O)(CO)[C@H]2O)[C@H](O)[C@@H](O)[C@H]1O (mixture of isomers) [Lactulose],-4.68
20,CCCCCCCCCC(=O)N[C@H]1[C@H](Oc2c3cc4cc2Oc2ccc(cc2Cl)[C@@H](O[C@@H]2O[C@H](CO)[C@@H](O)[C@H](O)[C@H]2NC(C)=O)[C@@H]2NC(=O)[C@H](NC(=O)[C@@H]4NC(=O)[C@H]4NC(=O)[C@@H](Cc5ccc(c(Cl)c5)O3)NC(=O)[C@H](N)c3ccc(O)c(c3)Oc3cc(O)cc4c3)c3ccc(O)c(c3)-c3c(OC4O[C@H](CO)[C@@H](O)[C@H](O)[C@@H]4O)cc(O)cc3[C@@H](C(=O)O)NC2=O)O[C@H](CO)[C@@H](O)[C@@H]1O (stereo partly specified) [Teicoplanin],15.5

# 2 entries picked at random from the list so far:
row,Structure (SMILES),inhibition of TGF-beta1-induced alpha-SMA expression [%]
21,CC(C)C[C@H](NC(=O)[C@H](CCc1ccccc1)NC(=O)CN1CCOCC1)C(=O)N[C@@H](Cc1ccccc1)C(=O)N[C@@H](CC(C)C)C(=O)[C@@]1(C)CO1 [Carfilzomib (PR-171)],> 100
17,N[C@@H](C(=O)N[C@@H]1C(=O)N2C(C(=O)O)=C(Cl)CS[C@H]12)c1ccccc1 [Cefaclor],-1.04
